Hit rate of the full screen: of about 59,000 compounds, about 6,500 (11%) were called active. Inconclusive results, whose numbers are uncertain, are shown with a selection of clear calls. Rule as the data show it: active = max dye-equivalent concentration above about 10 nM; inconclusive = mostly about 1.1 nM to 9.6 nM; inactive = weaker than that.
Test: qHTS Assay for Spectroscopic Profiling in A350 Spectral Region
Settings: Compound autofluorescence, 340/450 nm, Alexa 350 dye-equivalents; active compounds read high

Row | SMILES | max dye-equivalent concentration
1 | Cc1noc2nc(-c3cccs3)cc(-c3nnc4n3CCCCC4)c12 | active: 13000 nM
2 | CCN(CC)c1ccc(NC(=O)c2cc3ccccc3o2)c(C)c1 | inconclusive: 6.2 nM
3 | CCOC(=O)C1=C(C)N2C(=C(C#N)[C@@H]1c1ccc(C(=O)OC)cc1)SC[C@@]2(O)C(C)(C)C | active: 14 nM
4 | [O-][n+]1onc2c1C(N1CCOCC1)CCC2N1CCOCC1 (stereo unspecified) | active: 59 nM
5 | COc1ccc(C)cc1S(=O)(=O)N(CC(N)=O)Cc1ccccc1 | inconclusive: 1.3 nM
6 | COc1ccc(Oc2ncc3nc(-c4ccc(F)cc4)c(=O)n(CCC#N)c3n2)cc1 | inconclusive: 9.4 nM
7 | CCOc1cc(N2CCOCC2)c(OCC)cc1NC(=O)Cc1ccc(OC)c(OC)c1 | inactive
8 | Cc1cc(C)n(-c2ccc(C(=O)NCc3ccc4c(c3)OCO4)cc2)n1 | active: 11 nM
9 | COc1ccc(Cc2nnc(Nc3ccc(C)cc3C)[nH]c2=O)cc1 | inconclusive: 7 nM
10 | Cc1noc(C)c1C(=O)Nc1sc2c(c1C(N)=O)CCCCC2 | inconclusive: 1.3 nM
11 | COC(=O)[C@H](Cc1ccccc1)NC(=O)N1CCN(Cc2ccccc2)CC1 | inconclusive: 2.1 nM
12 | O=C(O)c1cc(-c2ccco2)nc2ccc(Br)cc12 | active: 150 nM
13 | CCOc1ccc(Nc2nc3c(c(=O)[nH]2)CCC3)cc1 | inconclusive: 2.5 nM
14 | COc1ccc2cc3c(N)c(C(=O)NCc4ccco4)sc3nc2c1 | inconclusive: 6.2 nM
15 | COCC(=O)Oc1c(S(=O)(=O)c2ccc(C)cc2)c(C)nn1-c1ccccc1 | inactive
16 | CCC(C(=O)c1ccc(O)cc1)c1ccccc1 (stereo unspecified) | inconclusive: 1.1 nM
17 | COc1ccc2c(c1)CCCN2C(N)=O | active: 4700 nM
18 | COc1ccccc1-c1c(C)nn2c(N3CCC4(CC3)OCCO4)cc(C)nc12 | inconclusive: 2.2 nM
19 | c1cncc(CSc2nnc(-c3cccnc3)n2Cc2ccco2)c1 | inconclusive: 4.8 nM
20 | COc1ccc(Nc2nc(N3CCCC3)nc3ccccc23)c(OC)c1 | inconclusive: 3.1 nM
21 | CC1(C)OC[C@@H]2O[C@H](n3cnc4c(N)nc(Cl)nc43)[C@@H](OS(C)(=O)=O)[C@@H]2O1 | inactive
22 | Cc1sc2c(c1C)CN(C1CC(C)(C)NC(C)(C)C1)CN2C(=O)c1ccco1 | active: 28 nM
23 | CCOC(=O)COc1ccc(C(=O)NC2CCCCC2)cc1 | inconclusive: 1.4 nM

Row | SMILES | max dye-equivalent concentration
24 | CCn1c(-c2ccc(C(C)(C)C)cc2)n[nH]c1=S | inactive
25 | COc1ccc(S(=O)(=O)CCC(=O)N2c3ccccc3CC2C)cc1 (stereo unspecified) | inconclusive: 2.4 nM
26 | Cn1c(=O)n(Cc2ccccc2)c(=O)c2c1nc1n2CCCN1C1CCCCC1 | inconclusive: 1.9 nM
27 | CCOC(=O)C(C(=O)N1CCOCC1)C1CCCCC1 (stereo unspecified) | inconclusive: 2.5 nM
28 | Nc1ccc(S(=O)(=O)c2ccc(NC(=O)c3cccnc3)cc2)cc1 | inactive
29 | O=c1c(-c2ccc(Cl)cc2)nc2cnc(N3CCOCC3)nc2n1Cc1ccc(F)cc1 | inconclusive: 1.4 nM
30 | O=C(Nc1ccc2nc(-c3ccco3)c(-c3ccco3)nc2c1)N1CCCCCC1 | active: 23 nM
31 | O=S(=O)(Nc1ccccc1Cl)c1ccc(F)cc1 | inconclusive: 2.8 nM
32 | CCC(c1nnnn1CCc1ccccc1)N(Cc1ccco1)Cc1cc2c(C)ccc(C)c2[nH]c1=O (stereo unspecified) | inconclusive: 3.6 nM
33 | NC(N)=NCCN1CCCCCCC1 | inactive
34 | Cn1c(=O)c(CCc2ccccc2)nc2cnc(Oc3ccccc3)nc21 | inconclusive: 2.6 nM
35 | CC1(C)CC(=O)C(C2=NC(C)(C)Cc3ccccc32)=C(O)C1 | inactive
36 | CCn1c2ccccc2c2nnc(SCC(=O)Nc3ncccn3)nc21 | inactive
37 | COc1ccc(-n2c(=O)[nH]cc(C(=O)Nc3ccc(NC(C)=O)cc3)c2=O)cc1 | inconclusive: 4.6 nM
38 | CS(=O)(=O)Nc1cccc(-c2cncnc2NCc2ccccc2)c1 | inactive
39 | O=C(COc1ccc(S(=O)(=O)NCc2ccccc2)cc1)NCC1CCCO1 (stereo unspecified) | inconclusive: 1.4 nM
40 | O=C1CCCN1CN(C(=O)c1ccccc1)c1ccc(F)cc1 | inactive
41 | COC(=O)CNC(=O)c1ccc2c(c1)S(=O)(=O)c1ccccc1C2=O | inconclusive: 1.7 nM
42 | Cc1csc(NC(=O)CSc2nnc(-c3ccoc3C)o2)n1 | inconclusive: 1.3 nM
43 | CCCCNC(=O)CC1N=C2c3ccccc3N=C(SCC(=O)Nc3ccccc3C)N2C1=O (stereo unspecified) | active: 100 nM
44 | CCOc1ccc(N2CC(C(=O)Oc3ccccc3)CC2=O)cc1 (stereo unspecified) | inactive
45 | ON1C(c2ccccc2C(F)(F)F)N(O)[C@H]2CCCC[C@H]21 (stereo partly specified) | inconclusive: 1.1 nM
46 | COc1ccc(CCn2nnnc2C(c2ccc(C)cc2)N2CCN(C)CC2)cc1OC (stereo unspecified) | inconclusive: 2.3 nM

Row | SMILES | max dye-equivalent concentration
47 | COc1ccc2c(c1)C(=O)N(c1ccccc1OC)C(=O)C2(C)C | inconclusive: 1.2 nM
48 | O=C(COC(=O)c1ccc(Cl)c(S(=O)(=O)N2CCCC2)c1)NC1CCCC1 | inactive
49 | CCC(=O)Nc1ccc(Cl)c(NC(=O)c2cccnc2)c1 | inconclusive: 1.1 nM
50 | O=C(O)CCOc1ccc2c(c1)OCCO2 | inactive
51 | O=C(Nc1cccc(C(=O)N2CCOCC2)c1)c1cccnc1 | inconclusive: 1.2 nM
52 | CCn1c(Cc2ccccc2)nnc1SCC(=O)Nc1nnc(-c2ccccc2)s1 | inconclusive: 1.1 nM
53 | COc1ccc(-c2nc(C#N)c(NCc3ccc(C)cc3)o2)cc1OC | inconclusive: 3.3 nM
54 | Cc1nc(-c2c(-c3ccc(O)cc3O)noc2C(F)(F)F)cs1 | inconclusive: 1.9 nM
55 | CCN1C(=O)C2(/C(=C(\O)c3ccc4c(c3)OCCO4)C(=O)C(=O)N2CCCOC)c2ccccc21 (stereo unspecified) | inconclusive: 3.3 nM
56 | Cc1cccc(NC(=O)c2c(O)c3cccc4c3n(c2=O)CCC4)n1 | inconclusive: 1.4 nM
57 | COc1ccc(NS(=O)(=O)c2ccc3oc(Nc4ccc5c(c4)OCCO5)nc3c2)cc1 | active: 43 nM
58 | C=CCOC(=O)C1=C(C)OC(N)=C(C#N)C1c1ccoc1 (stereo unspecified) | inconclusive: 6.8 nM
59 | CCC(=O)n1nc(-c2ccc(OC)cc2)nc1N | inconclusive: 1.5 nM
60 | Cn1cccc1-c1nc2ccc(NC(=O)c3ccco3)cc2[nH]1 | inactive
61 | O=C(Nc1ccc(CN2CCCCC2)cc1)c1ccc2c(c1)OCO2 | inactive
62 | CCCN1CCN(CCCNC(=O)Cn2nc(-c3ccccc3)ccc2=O)CC1 | inactive
63 | N#Cc1cn(CC(=O)O)c2ccccc12 | inconclusive: 1.5 nM
64 | CC1(C)Cc2nc(NCCCO)c(C#N)cc2CO1 | active: 1400 nM
65 | O=C(c1ccc2c(c1)OCCO2)C1CCN(C(=O)c2ccc(F)cc2)CC1 | inconclusive: 1.1 nM
66 | Cc1cc(C)n2nc(CC(=O)NC3CCCCCCC3)nc2n1 | inconclusive: 1.7 nM
67 | Cc1sc2ncnc(SCC(=O)NC(=O)NCc3ccco3)c2c1C | inactive
68 | COc1ccc(Cl)cc1C(=O)CSc1nc(N)cc(N)n1 | inconclusive: 2.5 nM
69 | O=C(CCSc1nc(-c2ccco2)cc(C(F)(F)F)n1)Nc1ccc2c(c1)OCO2 | inactive

Row | SMILES | max dye-equivalent concentration
70 | CC1Cc2ccccc2N1C(=O)CSc1nnc(CNc2ccccc2)o1 (stereo unspecified) | inactive
71 | c1ccc2c(c1)oc1c(Nc3ccc4c(c3)OCO4)ncnc12 | inconclusive: 5.5 nM
72 | CC1(C)CC(=O)C=C(NCC2CCCO2)C1 (stereo unspecified) | inactive
73 | COC(=O)c1cc(C(=O)OC)cc(N2C(=O)CN=C2Nc2nc(C)cc(C)n2)c1 | inconclusive: 2 nM
74 | CCCCCn1c(=O)[nH]c2cc(C(=O)NCCCN3CCC(C)CC3)ccc2c1=O | active: 38 nM
75 | CCN1C(=O)/C(=C/N(C)c2ccccc2)OC1=S | inconclusive: 3.1 nM
76 | COc1ccccc1CNc1ncnc2ccc(-c3ccc4c(c3)OCO4)cc12 | inconclusive: 1.4 nM
77 | Cc1ccc(CN2C(=O)C(C)(C)Oc3ccc(C(=O)N4CCCCC4)cc32)cc1 | inconclusive: 2.5 nM
78 | Cc1ccc(O)c(CC(C)C)n1 | inconclusive: 1.2 nM
79 | COc1ccc(C2C(C#N)=C(N)Oc3cc4c(cc32)OCO4)cc1 (stereo unspecified) | inconclusive: 3.8 nM
80 | Oc1ccccc1Cn1c(-c2ccccc2O)nc2ccccc21 | active: 28 nM
81 | COc1ccc(CCn2c(=N)c(C(=O)NCc3ccco3)cc3c(=O)n4ccccc4nc32)cc1 | active: 23 nM
82 | COCCCNC(=O)C12CCC(C)(C(=O)C1)C2(C)C (stereo unspecified) | inactive
83 | CCc1ccc2oc(-c3cccc(NC(=O)c4cccnc4)c3)nc2c1 | inactive
84 | O=C1OC2(c3ccc(O)cc3Oc3cc(O)ccc32)c2c1c(-c1ccccc1)c(-c1ccccc1)c(-c1ccccc1)c2-c1ccccc1 | active: 120 nM
85 | CCCOC(=O)c1c(-c2ccccc2)nc(CC)c(C(=O)SCC)c1CCC | inconclusive: 1.6 nM
86 | COCCn1c(=O)c(CCc2ccccc2)nc2cnc(Nc3ccccc3)nc21 | inconclusive: 4.2 nM
87 | CC(=O)c1c[nH]c2ccc(C)cc2c1=O | inconclusive: 1.7 nM
88 | CCOC(=O)c1[nH]c2ccc(OC)cc2c1NC(=O)CCN1CCN(Cc2ccccc2)CC1 | active: 64 nM
89 | Cc1ccc(C(=O)/C=C/Nc2cccc(O)c2)cc1 | inconclusive: 4 nM
90 | CCCC(=O)Nc1nc2ccc3nc(C)sc3c2s1 | inactive
91 | O=C(Nc1ccc(N2CCOCC2)cc1)C1CCCN(S(=O)(=O)c2ccccc2)C1 (stereo unspecified) | inconclusive: 2 nM

Given field by field: entries from further up
CCOC(=O)COc1ccc(C(=O)NC2CCCCC2)cc1
  max dye-equivalent concentration: inconclusive: 1.4 nM
CCn1c(-c2ccc(C(C)(C)C)cc2)n[nH]c1=S
  max dye-equivalent concentration: inactive
COc1ccc(S(=O)(=O)CCC(=O)N2c3ccccc3CC2C)cc1 (stereo unspecified)
  max dye-equivalent concentration: inconclusive: 2.4 nM
Cn1c(=O)n(Cc2ccccc2)c(=O)c2c1nc1n2CCCN1C1CCCCC1
  max dye-equivalent concentration: inconclusive: 1.9 nM
